Test results: article doi:10.1101/2021.12.22.473789
No constants are given. Whether binding was seen depends on the method and setting. In cells and extracts the contact can be indirect. Some entries that bind do so weakly or less than the wild type. For some assays here: Tags and fused reporters may be left off the sequences shown.

Sequences of proteins named here, by UniProt entry; tags and fusion partners are left off.
UniProt P10591: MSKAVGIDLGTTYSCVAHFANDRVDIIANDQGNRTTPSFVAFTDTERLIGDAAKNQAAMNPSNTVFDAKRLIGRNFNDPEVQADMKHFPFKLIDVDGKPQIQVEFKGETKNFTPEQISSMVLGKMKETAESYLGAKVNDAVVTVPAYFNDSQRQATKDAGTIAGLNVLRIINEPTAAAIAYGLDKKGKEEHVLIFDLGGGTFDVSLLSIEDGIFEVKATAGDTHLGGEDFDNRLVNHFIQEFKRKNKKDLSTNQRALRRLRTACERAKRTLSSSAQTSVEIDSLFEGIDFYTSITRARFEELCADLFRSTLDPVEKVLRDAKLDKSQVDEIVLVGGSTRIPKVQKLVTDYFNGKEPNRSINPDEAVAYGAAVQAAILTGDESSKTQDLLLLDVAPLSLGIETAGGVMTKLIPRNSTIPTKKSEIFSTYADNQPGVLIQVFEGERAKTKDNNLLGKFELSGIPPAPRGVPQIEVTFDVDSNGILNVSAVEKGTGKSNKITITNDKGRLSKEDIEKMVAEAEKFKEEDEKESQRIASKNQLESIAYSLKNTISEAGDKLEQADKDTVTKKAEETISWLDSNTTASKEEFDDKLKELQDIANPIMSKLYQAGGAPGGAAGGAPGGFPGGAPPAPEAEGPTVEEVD
UniProt P19812: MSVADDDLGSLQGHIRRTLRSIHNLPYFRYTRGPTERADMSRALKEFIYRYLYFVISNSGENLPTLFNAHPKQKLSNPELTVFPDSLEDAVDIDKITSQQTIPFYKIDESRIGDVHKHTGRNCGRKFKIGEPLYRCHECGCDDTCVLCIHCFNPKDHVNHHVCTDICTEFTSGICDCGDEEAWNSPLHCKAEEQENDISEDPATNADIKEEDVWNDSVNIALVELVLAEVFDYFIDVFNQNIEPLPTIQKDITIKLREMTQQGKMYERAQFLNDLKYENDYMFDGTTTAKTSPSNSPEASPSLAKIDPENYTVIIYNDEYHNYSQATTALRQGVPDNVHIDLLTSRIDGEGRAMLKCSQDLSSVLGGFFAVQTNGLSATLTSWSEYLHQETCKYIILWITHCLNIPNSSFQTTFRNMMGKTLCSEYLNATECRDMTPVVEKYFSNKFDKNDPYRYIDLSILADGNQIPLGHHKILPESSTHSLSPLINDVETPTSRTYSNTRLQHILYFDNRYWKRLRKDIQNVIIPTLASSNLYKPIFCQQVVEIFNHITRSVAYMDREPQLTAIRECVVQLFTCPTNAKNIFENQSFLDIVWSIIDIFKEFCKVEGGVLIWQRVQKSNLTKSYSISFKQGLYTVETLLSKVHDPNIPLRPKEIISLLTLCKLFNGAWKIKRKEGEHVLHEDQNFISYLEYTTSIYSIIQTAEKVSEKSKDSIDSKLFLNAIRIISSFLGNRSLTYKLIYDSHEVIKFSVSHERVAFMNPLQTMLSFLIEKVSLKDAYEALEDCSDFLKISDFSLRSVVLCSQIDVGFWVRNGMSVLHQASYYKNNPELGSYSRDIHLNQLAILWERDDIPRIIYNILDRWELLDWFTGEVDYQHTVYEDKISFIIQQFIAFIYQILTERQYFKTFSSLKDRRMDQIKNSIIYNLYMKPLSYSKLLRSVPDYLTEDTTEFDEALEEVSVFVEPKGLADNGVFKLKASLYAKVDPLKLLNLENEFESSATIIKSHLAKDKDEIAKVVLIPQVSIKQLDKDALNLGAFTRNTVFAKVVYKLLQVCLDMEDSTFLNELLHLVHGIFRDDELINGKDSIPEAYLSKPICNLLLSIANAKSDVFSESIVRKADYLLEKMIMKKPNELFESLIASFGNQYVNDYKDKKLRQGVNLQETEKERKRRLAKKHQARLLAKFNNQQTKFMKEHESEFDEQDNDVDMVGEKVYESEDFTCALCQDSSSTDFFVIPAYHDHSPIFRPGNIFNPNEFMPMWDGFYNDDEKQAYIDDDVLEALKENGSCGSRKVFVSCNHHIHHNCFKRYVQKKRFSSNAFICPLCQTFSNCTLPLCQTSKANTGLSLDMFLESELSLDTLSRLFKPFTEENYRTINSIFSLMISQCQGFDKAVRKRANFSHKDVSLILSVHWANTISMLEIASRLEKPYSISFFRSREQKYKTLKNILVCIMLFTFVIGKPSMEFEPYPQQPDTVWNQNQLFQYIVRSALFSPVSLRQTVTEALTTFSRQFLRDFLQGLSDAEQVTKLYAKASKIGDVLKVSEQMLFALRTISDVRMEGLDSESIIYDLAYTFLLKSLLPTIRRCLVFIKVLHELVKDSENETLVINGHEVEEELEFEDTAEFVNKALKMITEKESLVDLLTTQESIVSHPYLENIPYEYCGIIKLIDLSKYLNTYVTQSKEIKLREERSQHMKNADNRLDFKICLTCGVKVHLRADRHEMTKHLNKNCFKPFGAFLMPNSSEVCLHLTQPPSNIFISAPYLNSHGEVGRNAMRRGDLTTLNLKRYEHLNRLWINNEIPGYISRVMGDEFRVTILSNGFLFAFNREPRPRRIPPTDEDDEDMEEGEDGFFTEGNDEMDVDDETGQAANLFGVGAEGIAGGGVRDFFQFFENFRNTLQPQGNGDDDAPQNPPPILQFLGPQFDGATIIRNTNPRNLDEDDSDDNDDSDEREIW

Tests used:
[1] = target: myc-tagged yeast Hsp70 homologue Ssa1 (S. cerevisiae) (UniProt P10591); experiment: co-IP
[2] = target: T1, GFP-1xRLLL fusion (GFP fused to one copy of the 22-residue APPY peptide) (chicken); experiment: co-IP
T1 sequence: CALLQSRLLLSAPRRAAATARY

Row | Substance | binding [1] | binding [2]
1 | Ubr1-HA (from UniProt P19812 1-1950) (enzyme) | binds | 
2 | myc-tagged yeast Hsp70 homologue Ssa1 (from UniProt P10591 1-642) |  | binds
